Part of at least one peptide drawing is inferred or uncertain, most often the ends. Residues, ends and D or L forms follow the SMILES beside them.
What was measured:
[1] = test system: human breast malignant carcinoma cell line (MT-1); type: cell-based; conditions: 24 hours; maximum concentration 100 μg/ml
Protocol: The cytotoxic effects of the peptides on different human tumour cells were measured using the MTT colorimetric assay (Mosmann, 1983). MIT (3-(4-5-dimethylthiazol-2-yl)-2,5-diphenyl tetrazolium bromide) is a soluble tetrazolium salt yielding a yellow solution when prepared in media or salt solutions lacking phenol red. Dissolved MIT is converted to an insoluble purple formazan by cleavage of the tetrazolium ring by dehydrogenase enzymes. This water insoluble formazan can be solubilized using isopropanol or other solvents and the dissolved material is measured spectrophotometrically. The absorbance was measured as a function of concentration of converted dye. […]
The tumour cell lines FemX, HT-29, MT-1 were maintained in RPMI-1640 medium supplemented with 10% heat inactivated FBS and 1% L-glutamine in a humidified atmosphere of 5% CO2 at 37° C. […] Cells to be used in the assay were grown to a minimum of 75% confluency, trypsinated and split to single cell suspension, counted and centrifuged at 1500 rpm for 10 min. […]
The cytotoxicity was measured using the MTT method (Mosmann, 1983), with minor modifications. […] The plate was placed on a shaker for 1 hour at room temperature and read spectrophotometrically at 590 nm in a microtiter plate reader (DTX880 Multimode Detector, Beckman Coulter). […]

E. coli (ATCC 25922) = test: Antibacterial killing assay; type: cell-based, Escherichia coli; conditions: 0.78 μM peptide, MHB, 22° C.

**Q.** How did the “Antitumoral activity IC50, M T-1” value [1] turn out when `CC[C@H](C)[C@H](NC(=O)CNC(=O)[C@H](CO)NC(=O)[C@H](CCCCN)NC(=O)[C@@H](NC(=O)[C@H](C)NC(=O)[C@H](Cc1c[nH]cn1)NC(=O)[C@H](CO)NC(=O)[C@@H](NC(=O)[C@H](CCCCN)NC(=O)[C@H](Cc1c[nH]cn1)NC(=O)[C@H](Cc1ccccc1)NC(=O)[C@@H](NC(=O)[C@H](CCCCN)NC(=O)[C@H](CCCCN)NC(=O)[C@H](Cc1ccccc1)NC(=O)C(Cc1c[nH]c2ccc(Br)cc12)NC(=O)CN)[C@@H](C)O)C(C)C)C(C)C)C(=O)N[C@@H](Cc1c[nH]cn1)C(=O)N[C@@H](C)C(=O)NCC(=O)N[C@@H](CCC(N)=O)C(=O)N[C@@H](CCCNC(=N)N)C(=O)NCC(=O)N[C@@H](CS)C(=O)N[C@@H](CO)C(=O)N[C@@H](C)C(=O)N[C@@H](CC(C)C)C(=O)NCC(=O)N[C@@H](Cc1ccccc1)C(=O)O` (stereo partly drawn) [P17 HC-Br] (HELM PEPTIDE1{G.[O=C(C(Cc1c[nH]c2ccc(Br)cc12)N[*:1])[*:2]].F.K.K.T.F.H.K.V.S.H.A.V.K.S.G.I.H.A.G.Q.R.G.C.S.A.L.G.F}$$$$V2.0) was run?
**A.** Its value is “some activity”.

**Q.** What about the “reduction of colony forming units” value (E. coli (ATCC 25922); after 5 minutes) of the same compound?
**A.** Its value is “approximately 10^4”.

**Q.** What about the “colony forming units after 2 hours” value (E. coli (ATCC 25922); after 2 hours) of the same compound?
**A.** Its value is “no cfu were observed”.

— patent publication US20100093642A1, “NOVEL POLYPEPTIDES” (priority 2006, published 2010)
